# From the supplement of paper PMC4749390
# Where a name gives a salt, the structure may show the parent alone. The list shows a part of the results. This data set is noisy: repeats of one test often differ as much as different tests do.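 Wild-type human LRH-1, a heavily sumoylated nuclear receptor, is tetracycline-inducible in stable JEG3 cells. RT-qPCR measured SUMO-sensitive APOC3 and MUC1 transcripts, which rise with SUMO-less LRH-1 or UBC9 knockdown, versus TBP and DMSO controls. Robust Z-scores beyond ±2 flagged primary hits, followed by toxicity and TBP filtering.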
# Tested on: JEG3 expressing hLRH-1
# Test: APOC3 transcript change (ddCt vs TBP and DMSO), Z-score over library; higher = higher APOC3 expression
# Details: 10 µM; time (hr): 24
row,SMILES,APOC3 transcript change (Z-score)
1,Cc1cc(CC(C)CC(C)(C)C)n(O)c(=O)c1.NCCO (stereo unspecified) [piroctone olamine],2.46
2,C#C[C@]1(O)CCC2C3CCC4=CC(=O)CC[C@@H]4C3CCC21CC (stereo partly specified) [norgestrel],0.836
3,CO[C@@H]1[C@@H](OC(N)=O)[C@@H](O)[C@H](Oc2ccc3c(O)c(NC(=O)c4ccc(O)c(CC=C(C)C)c4)c(=O)oc3c2C)OC1(C)C [novobiocin sodium],0.665
4,COc1ccccc1OCC(O)CO (stereo unspecified) [guaifenesin],-0.258
5,CC[C@]1(O)C[C@H]2CN(CCc3c([nH]c4ccccc34)[C@@](C(=O)OC)(c3cc4c(cc3OC)N(C=O)[C@H]3[C@@](O)(C(=O)OC)[C@H](OC(C)=O)[C@]5(CC)C=CCN6CC[C@]43[C@@H]65)C2)C1 [vincristine sulfate],-3.6
6,NC[C@@H]1O[C@H](O[C@H]2[C@@H](O)[C@H](O[C@@H]3[C@@H](O)[C@H](N)C[C@H](N)[C@H]3O[C@H]3O[C@H](CO)[C@@H](O)[C@H](O)[C@H]3N)O[C@@H]2CO)[C@H](N)[C@@H](O)[C@@H]1O [paromomycin sulfate],-0.09
7,CN(C)CCCN1c2ccccc2CCc2ccc(Cl)cc21 [Clomipramine hydrochloride],0.151
8,CN(N=O)C(=O)N[C@@H]1[C@@H](O)[C@H](O)[C@@H](CO)O[C@@H]1O [streptozosin],0.469
9,CC/C(=C(/CC)c1ccc(O)cc1)c1ccc(O)cc1 [diethylstilbestrol],0.0929
10,COc1cc(C(=O)NCc2ccc(OCCN(C)C)cc2)cc(OC)c1OC [trimethobenzamide hydrochloride],-1.19
11,Cc1cc(C(C)(C)C)c(O)c(C)c1CC1=NCCN1 [Oxymetazoline hydrochloride],0.301
12,CO/N=C(\C(=O)N[C@@H]1C(=O)N2C(C(=O)O)=C(CSc3nnnn3C)CS[C@H]12)c1csc(N)n1 [cefmenoxime hydrochloride],-0.937
13,CC(=O)O[C@H]1CC2CCC3C(CC[C@@]4(C)C3C[C@H]([N+]3(C)CCCCC3)[C@@H]4OC(C)=O)[C@@]2(C)C[C@@H]1N1CCCCC1 (stereo partly specified) [vecuronium bromide],0.831
14,CNNCc1ccc(C(=O)NC(C)C)cc1 [procarbazine hydrochloride],-1.07
15,CC1=C(C(=O)O)N2C(=O)[C@@H](NC(=O)[C@H](N)C3=CCC=CC3)C2SC1 (stereo partly specified) [cephradine],1.02
16,C[C@H]1O[C@@H](O[C@H]2[C@@H](O)C[C@H](O[C@H]3[C@@H](O)C[C@H](O[C@H]4CC[C@@]5(C)[C@H](CC[C@@H]6[C@@H]5C[C@@H](O)[C@]5(C)[C@@H](C7=CC(=O)OC7)CC[C@]65O)C4)O[C@@H]3C)O[C@@H]2C)C[C@H](O)[C@@H]1O [digoxin],-4.56

# Quoted from above: entries 4–6
row,SMILES,APOC3 transcript change (Z-score)
4,COc1ccccc1OCC(O)CO (stereo unspecified) [guaifenesin],-0.258
5,CC[C@]1(O)C[C@H]2CN(CCc3c([nH]c4ccccc34)[C@@](C(=O)OC)(c3cc4c(cc3OC)N(C=O)[C@H]3[C@@](O)(C(=O)OC)[C@H](OC(C)=O)[C@]5(CC)C=CCN6CC[C@]43[C@@H]65)C2)C1 [vincristine sulfate],-3.6
6,NC[C@@H]1O[C@H](O[C@H]2[C@@H](O)[C@H](O[C@@H]3[C@@H](O)[C@H](N)C[C@H](N)[C@H]3O[C@H]3O[C@H](CO)[C@@H](O)[C@H](O)[C@H]3N)O[C@@H]2CO)[C@H](N)[C@@H](O)[C@@H]1O [paromomycin sulfate],-0.09
